Source: paper PMC11607453

The chains behind the UniProt entries cited, without tags or fusion partners.
UniProt Q7Z4S6: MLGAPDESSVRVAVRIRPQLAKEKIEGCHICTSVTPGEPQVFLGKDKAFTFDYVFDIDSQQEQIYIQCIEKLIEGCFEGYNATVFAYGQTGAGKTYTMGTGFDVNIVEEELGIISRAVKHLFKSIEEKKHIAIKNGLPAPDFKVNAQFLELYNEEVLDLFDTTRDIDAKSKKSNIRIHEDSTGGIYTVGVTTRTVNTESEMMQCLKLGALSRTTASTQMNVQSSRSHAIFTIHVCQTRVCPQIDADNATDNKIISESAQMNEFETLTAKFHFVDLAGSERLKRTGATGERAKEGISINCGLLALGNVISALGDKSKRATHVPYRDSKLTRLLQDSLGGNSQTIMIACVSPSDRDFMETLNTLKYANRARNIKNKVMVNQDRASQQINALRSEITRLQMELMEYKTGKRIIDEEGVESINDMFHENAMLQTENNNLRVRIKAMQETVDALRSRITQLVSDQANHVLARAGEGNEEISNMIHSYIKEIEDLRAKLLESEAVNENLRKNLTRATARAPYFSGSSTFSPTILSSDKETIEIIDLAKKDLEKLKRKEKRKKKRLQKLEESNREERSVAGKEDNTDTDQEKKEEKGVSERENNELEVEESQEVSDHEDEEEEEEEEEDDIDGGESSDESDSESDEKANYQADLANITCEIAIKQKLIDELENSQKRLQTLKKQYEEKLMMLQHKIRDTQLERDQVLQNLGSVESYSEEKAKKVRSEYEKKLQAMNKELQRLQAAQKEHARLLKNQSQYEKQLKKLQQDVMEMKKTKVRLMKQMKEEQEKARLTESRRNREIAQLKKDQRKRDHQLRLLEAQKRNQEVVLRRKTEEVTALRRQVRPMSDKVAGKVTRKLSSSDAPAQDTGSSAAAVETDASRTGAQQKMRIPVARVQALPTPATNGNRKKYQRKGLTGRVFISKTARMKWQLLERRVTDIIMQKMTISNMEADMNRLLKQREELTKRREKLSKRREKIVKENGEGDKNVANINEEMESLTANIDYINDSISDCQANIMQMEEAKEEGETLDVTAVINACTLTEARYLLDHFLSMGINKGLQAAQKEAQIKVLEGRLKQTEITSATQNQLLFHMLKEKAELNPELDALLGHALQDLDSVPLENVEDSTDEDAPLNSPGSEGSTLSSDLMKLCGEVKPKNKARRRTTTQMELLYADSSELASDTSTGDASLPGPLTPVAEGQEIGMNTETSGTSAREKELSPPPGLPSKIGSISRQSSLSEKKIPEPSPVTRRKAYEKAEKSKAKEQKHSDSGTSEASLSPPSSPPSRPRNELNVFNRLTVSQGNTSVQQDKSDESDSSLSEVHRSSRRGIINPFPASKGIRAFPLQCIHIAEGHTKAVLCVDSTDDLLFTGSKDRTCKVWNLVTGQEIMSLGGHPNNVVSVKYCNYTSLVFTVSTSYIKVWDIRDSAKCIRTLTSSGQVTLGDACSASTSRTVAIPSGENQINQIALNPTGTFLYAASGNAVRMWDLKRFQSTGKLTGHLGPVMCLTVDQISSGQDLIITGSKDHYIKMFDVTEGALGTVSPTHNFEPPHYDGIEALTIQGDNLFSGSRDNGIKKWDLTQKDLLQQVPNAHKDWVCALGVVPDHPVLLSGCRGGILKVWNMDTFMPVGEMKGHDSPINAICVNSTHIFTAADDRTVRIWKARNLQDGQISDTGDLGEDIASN
UniProt Q86W92: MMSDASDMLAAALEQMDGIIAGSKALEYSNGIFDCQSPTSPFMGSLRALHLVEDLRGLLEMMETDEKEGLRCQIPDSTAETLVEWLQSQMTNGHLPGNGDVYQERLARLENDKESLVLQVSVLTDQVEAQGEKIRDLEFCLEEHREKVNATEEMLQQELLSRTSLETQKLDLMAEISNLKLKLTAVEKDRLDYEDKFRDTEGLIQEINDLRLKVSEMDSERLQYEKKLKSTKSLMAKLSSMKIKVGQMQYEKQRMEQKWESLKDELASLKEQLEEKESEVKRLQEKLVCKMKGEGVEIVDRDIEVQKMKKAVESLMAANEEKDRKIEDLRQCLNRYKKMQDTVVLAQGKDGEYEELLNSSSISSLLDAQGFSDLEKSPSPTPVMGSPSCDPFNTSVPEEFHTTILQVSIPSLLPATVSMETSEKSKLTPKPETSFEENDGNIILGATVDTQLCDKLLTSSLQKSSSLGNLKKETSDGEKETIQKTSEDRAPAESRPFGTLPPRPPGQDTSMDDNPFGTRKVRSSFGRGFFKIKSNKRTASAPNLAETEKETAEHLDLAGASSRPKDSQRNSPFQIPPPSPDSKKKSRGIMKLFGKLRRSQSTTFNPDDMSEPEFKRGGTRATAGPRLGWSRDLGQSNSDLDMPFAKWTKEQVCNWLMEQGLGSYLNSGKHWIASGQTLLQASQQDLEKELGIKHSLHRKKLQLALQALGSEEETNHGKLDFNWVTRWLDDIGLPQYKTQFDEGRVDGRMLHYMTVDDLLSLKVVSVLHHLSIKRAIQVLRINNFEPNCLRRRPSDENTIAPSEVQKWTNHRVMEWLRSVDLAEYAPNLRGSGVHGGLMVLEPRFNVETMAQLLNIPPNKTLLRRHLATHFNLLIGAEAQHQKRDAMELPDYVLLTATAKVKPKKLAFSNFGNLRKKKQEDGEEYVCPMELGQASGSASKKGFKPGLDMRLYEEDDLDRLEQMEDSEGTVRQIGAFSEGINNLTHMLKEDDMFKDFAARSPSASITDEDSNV
UniProt P31946: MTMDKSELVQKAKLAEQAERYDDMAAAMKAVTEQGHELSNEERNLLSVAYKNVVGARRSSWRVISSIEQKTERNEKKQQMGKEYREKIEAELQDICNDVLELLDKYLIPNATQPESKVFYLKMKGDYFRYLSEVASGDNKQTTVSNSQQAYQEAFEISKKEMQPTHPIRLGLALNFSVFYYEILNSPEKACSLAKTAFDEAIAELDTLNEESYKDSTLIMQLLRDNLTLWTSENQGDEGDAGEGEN
UniProt P62258: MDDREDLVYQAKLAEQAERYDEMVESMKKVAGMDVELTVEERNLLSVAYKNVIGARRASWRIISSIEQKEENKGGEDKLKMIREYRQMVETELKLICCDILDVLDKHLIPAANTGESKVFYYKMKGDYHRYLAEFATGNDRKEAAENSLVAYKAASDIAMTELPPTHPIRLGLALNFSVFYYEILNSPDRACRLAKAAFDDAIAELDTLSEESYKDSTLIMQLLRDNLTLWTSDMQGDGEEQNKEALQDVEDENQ

T1: GFP-tagged KANK1 (KANK1-GFP), expressed in HEK293T cells (UniProt Q14678)
T1 sequence: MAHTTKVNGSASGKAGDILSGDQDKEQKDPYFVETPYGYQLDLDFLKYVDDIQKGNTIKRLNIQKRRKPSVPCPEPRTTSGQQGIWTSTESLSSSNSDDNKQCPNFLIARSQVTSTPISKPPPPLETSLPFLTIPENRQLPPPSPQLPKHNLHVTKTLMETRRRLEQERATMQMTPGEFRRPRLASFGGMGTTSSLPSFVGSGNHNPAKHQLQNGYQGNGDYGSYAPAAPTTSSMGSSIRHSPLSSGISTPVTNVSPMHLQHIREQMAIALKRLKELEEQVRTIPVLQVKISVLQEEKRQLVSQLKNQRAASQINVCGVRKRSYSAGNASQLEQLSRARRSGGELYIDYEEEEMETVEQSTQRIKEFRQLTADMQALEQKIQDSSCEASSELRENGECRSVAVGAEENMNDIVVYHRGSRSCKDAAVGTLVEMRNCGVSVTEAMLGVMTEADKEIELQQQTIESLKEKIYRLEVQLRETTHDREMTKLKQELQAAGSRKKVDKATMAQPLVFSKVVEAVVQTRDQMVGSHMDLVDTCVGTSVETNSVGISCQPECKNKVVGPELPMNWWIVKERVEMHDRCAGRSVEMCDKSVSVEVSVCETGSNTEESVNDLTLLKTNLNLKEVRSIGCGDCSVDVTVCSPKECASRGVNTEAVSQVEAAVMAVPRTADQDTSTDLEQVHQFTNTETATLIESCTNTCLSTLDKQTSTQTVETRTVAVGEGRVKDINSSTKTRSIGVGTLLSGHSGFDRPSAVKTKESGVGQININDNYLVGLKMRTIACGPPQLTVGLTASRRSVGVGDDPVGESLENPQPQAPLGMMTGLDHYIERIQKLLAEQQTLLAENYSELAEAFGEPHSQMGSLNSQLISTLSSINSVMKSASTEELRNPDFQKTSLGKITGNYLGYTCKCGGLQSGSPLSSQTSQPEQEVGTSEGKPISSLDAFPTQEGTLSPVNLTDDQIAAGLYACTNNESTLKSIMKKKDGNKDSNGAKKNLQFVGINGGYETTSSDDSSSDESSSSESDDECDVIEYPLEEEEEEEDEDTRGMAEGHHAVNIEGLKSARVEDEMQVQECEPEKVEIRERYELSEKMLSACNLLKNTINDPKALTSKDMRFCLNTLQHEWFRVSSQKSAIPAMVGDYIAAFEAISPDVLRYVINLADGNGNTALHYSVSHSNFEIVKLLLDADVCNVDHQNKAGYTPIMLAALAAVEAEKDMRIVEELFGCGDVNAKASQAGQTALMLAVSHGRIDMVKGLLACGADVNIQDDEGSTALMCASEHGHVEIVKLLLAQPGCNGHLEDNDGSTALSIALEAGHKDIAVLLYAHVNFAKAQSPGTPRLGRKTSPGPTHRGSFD

T2: green fluorescent protein (GFP)-tagged KANK1 (KANK1-GFP), expressed in MCF7 cells (UniProt Q14678)
T2 sequence: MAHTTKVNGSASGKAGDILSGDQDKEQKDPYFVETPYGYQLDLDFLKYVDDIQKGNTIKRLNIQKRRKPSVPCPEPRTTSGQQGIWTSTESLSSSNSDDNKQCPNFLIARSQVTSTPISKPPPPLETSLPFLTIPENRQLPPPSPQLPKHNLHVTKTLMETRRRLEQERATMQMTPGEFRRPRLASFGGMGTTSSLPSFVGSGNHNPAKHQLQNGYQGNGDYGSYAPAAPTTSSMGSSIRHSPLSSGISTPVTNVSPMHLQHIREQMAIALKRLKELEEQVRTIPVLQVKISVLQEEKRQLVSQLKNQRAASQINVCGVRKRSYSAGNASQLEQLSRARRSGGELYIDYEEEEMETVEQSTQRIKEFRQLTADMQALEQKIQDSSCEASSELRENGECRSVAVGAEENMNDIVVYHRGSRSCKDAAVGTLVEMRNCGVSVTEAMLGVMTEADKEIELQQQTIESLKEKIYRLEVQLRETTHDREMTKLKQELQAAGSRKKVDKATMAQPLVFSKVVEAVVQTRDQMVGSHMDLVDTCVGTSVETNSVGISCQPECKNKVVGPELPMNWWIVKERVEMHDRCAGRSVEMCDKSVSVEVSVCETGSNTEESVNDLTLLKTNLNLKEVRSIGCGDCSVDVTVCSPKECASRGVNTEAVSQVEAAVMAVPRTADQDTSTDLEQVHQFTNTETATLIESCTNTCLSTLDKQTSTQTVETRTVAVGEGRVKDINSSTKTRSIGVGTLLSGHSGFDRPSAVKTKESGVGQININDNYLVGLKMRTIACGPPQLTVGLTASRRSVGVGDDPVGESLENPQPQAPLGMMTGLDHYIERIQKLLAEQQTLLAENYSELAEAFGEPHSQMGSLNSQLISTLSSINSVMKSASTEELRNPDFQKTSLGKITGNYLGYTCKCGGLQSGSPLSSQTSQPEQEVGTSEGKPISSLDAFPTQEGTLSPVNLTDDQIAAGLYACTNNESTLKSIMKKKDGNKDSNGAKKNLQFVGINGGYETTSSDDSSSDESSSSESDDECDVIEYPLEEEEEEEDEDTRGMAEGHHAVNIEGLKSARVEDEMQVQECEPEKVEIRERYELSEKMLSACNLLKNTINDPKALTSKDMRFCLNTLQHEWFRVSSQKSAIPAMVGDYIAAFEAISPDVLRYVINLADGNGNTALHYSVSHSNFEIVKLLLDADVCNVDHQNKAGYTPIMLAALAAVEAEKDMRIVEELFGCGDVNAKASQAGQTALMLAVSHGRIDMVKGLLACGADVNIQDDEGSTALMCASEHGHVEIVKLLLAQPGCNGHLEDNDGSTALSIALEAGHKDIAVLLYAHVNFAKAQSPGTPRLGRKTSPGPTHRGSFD


Target: T1, GFP-tagged KANK1 (KANK1-GFP), expressed in HEK293T cells
Test: affinity purification with mass spectrometry; anti-GFP IP and MS in HEK293T cells (Supplementary Fig. 6a)

binding	Molecule
binds	C1orf226, as identified by MS in HEK293T cells (protein, UniProt A1L170 1-272) MFENLNTALTPKLQASRSFPHLSKPVAPGSAPLGSGEPGGPGLWVGSSQHLKNLGKAMGAKVNDFLRRKEPSSLGSVGVTEINKTAGAQLASGTDAAPEAWLEDERSVLQETFPRLDPPPPITRKRTPRALKTTQDMLISSQPVLSSLEYGTEPSPGQAQDSAPTAQPDVPADASQPEATMEREERGKVLPNGEVSLSVPDLIHKDSQDESKLKMTECRRASSPSLIERNGFKLSLSPISLAESWEDGSPPPQARTSSLDNEGPHPDLLSFE

Target: T2, green fluorescent protein (GFP)-tagged KANK1 (KANK1-GFP), expressed in MCF7 cells
Test: affinity purification with mass spectrometry; anti-GFP IP from lysates of MCF7 cells expressing the GFP-tagged bait (KANK1-GFP or GFP-NOS1APc; GFP-only as control), on-beads digestion, label-free quantification, 3 biological replicates

Molecule	binding
KIF21A (from UniProt Q7Z4S6 1-1674)	binds
NOS1AP-splice isoform chromosome 1 open reading frame 226 (C1orf226), as identified by MS in MCF7 cells (protein, UniProt A1L170 1-272) MFENLNTALTPKLQASRSFPHLSKPVAPGSAPLGSGEPGGPGLWVGSSQHLKNLGKAMGAKVNDFLRRKEPSSLGSVGVTEINKTAGAQLASGTDAAPEAWLEDERSVLQETFPRLDPPPPITRKRTPRALKTTQDMLISSQPVLSSLEYGTEPSPGQAQDSAPTAQPDVPADASQPEATMEREERGKVLPNGEVSLSVPDLIHKDSQDESKLKMTECRRASSPSLIERNGFKLSLSPISLAESWEDGSPPPQARTSSLDNEGPHPDLLSFE	binds

Second part, the molecule after the results:

binding	Molecule
binds	PPFIBP1 (Liprinβ1) (from UniProt Q86W92 1-1011)
binds	YWHAB (14-3-3 protein) (from UniProt P31946 1-246)
binds	YWHAE (14-3-3 protein) (from UniProt P62258 1-255)
binds	YWHAQ (14-3-3 protein) (protein, UniProt P27348 1-245) MEKTELIQKAKLAEQAERYDDMATCMKAVTEQGAELSNEERNLLSVAYKNVVGGRRSAWRVISSIEQKTDTSDKKLQLIKDYREKVESELRSICTTVLELLDKYLIANATNPESKVFYLKMKGDYFRYLAEVACGDDRKQTIDNSQGAYQEAFDISKKEMQPTHPIRLGLALNFSVFYYEILNNPELACTLAKTAFDEAIAELDTLNEDSYKDSTLIMQLLRDNLTLWTSDSAGEECDAAEGAEN

Results are given in words; binding and its absence hold for the method and conditions named. Binding seen in cells or lysates may run through a third protein. A yes stands for co-enrichment or nearness to the bait. Other partners may have been found. Tags and fused reporters may be left off the sequences shown.
